PubChem BioAssay AID1159584 | Peter MacCallum Cancer Centre | 2016

Assay: 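Genes that CDH1-null MCF10A cells selectively depend on to survive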 (primary screen)
System: human MCF10A breast epithelial cells, parental and CDH1-null
Reagent: siRNA against human genes
Measurement: 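ATP luminescence (CellTiter-Glo) viability per line relative to mean mock wells over all plates, and the ratio of CDH1-null to parental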
Direction: CDH1-null / parental viability ratio: higher = CDH1-null cells survive relatively better than parental; CDH1-null viability vs mock: higher = more viable CDH1-null cells; parental viability vs mock: higher = more viable parental cells
In all, the deposit lists about 18,000 reagents; below is an unselected part. The record does not give: the amount of reagent, the time to read-out.

gene | PubChem SID | CDH1-null / parental viability ratio | CDH1-null viability vs mock (fraction of mock) | parental viability vs mock (fraction of mock)
RECQL4 (GeneID 9401) | SID152154402 | 1.29 | 0.9 | 0.7
ITGA2 (GeneID 3673) | SID152150596 | 0.86 | 0.67 | 0.78
COLEC12 (GeneID 81035) | SID152153957 | 1.09 | 0.73 | 0.67
ASCL4 (GeneID 121549) | SID135624615 | 1.24 | 0.89 | 0.72
ISY1 (GeneID 57461) | SID152155648 | 1.36 | 0.15 | 0.11
BORCS8-MEF2B (GeneID 4207) | SID134314098 | 1.06 | 1.15 | 1.08
SLC9D1 (GeneID 55002) | SID135624081 | 1.01 | 0.77 | 0.76
LPA (GeneID 4018) | SID135623894 | 1.15 | 0.84 | 0.73
SMIM14 (GeneID 201895) | SID134321735 | 0.96 | 0.54 | 0.56
ICAM3 (GeneID 3385) | SID134316019 | 1.13 | 0.88 | 0.78
XKR3 (GeneID 150165) | SID152151474 | 1.17 | 0.82 | 0.7
TMEM216 (GeneID 51259) | SID135623290 | 0.89 | 0.75 | 0.84
CCDC18 (GeneID 343099) | SID152156734 | 0.99 | 0.96 | 0.97
PPP4R3B (GeneID 57223) | SID134326871 | 0.95 | 0.76 | 0.8
PDE8B (GeneID 8622) | SID152147610 | 1.65 | 0.94 | 0.57
NEUROG3 (GeneID 50674) | SID152153984 | 1.42 | 0.91 | 0.64
CUEDC2 (GeneID 79004) | SID135622709 | 1.36 | 1.22 | 0.9
TSC2 (GeneID 7249) | SID152149450 | 1.02 | 0.95 | 0.93
ZNF750 (GeneID 79755) | SID152148018 | 0.85 | 0.5 | 0.59
DEFB115 (GeneID 245929) | SID135625245 | 0.86 | 0.48 | 0.56
RBBP9 (GeneID 10741) | SID135623363 | 0.62 | 0.36 | 0.58
UBASH3B (GeneID 84959) | SID135621590 | 0.79 | 0.74 | 0.94
OR4C11 (GeneID 219429) | SID135624587 | 0.95 | 0.8 | 0.84
MAMLD1 (GeneID 10046) | SID152146894 | 1.02 | 0.53 | 0.52
MTFP1 (GeneID 51537) | SID135624143 | 0.97 | 0.97 | 1
RAB40AL (GeneID 282808) | SID135625716 | 0.99 | 0.88 | 0.89
KIAA0825 (GeneID 285600) | SID134321996 | 0.97 | 0.99 | 1.02
BMP7 (GeneID 655) | SID134315919 | 0.97 | 0.6 | 0.62
HRH3 (GeneID 11255) | SID134311070 | 0.73 | 0.76 | 1.04
RIN3 (GeneID 79890) | SID134318647 | 1.03 | 1.03 | 1
TRAF7 (GeneID 84231) | SID134312209 | 0.93 | 0.77 | 0.83
ACTN4 (GeneID 81) | SID152154111 | 1.07 | 0.9 | 0.84
TSR3 (GeneID 115939) | SID134328725 | 1.03 | 0.92 | 0.89
CALN1 (GeneID 83698) | SID152155749 | 1.15 | 0.9 | 0.78
HMGA1 (GeneID 3159) | SID135620847 | 0.98 | 0.84 | 0.86
GPR35 (GeneID 2859) | SID134311009 | 1.32 | 0.82 | 0.62
VPS45 (GeneID 11311) | SID152150687 | 1.2 | 0.48 | 0.4
IL6 (GeneID 3569) | SID152148716 | 1.08 | 0.78 | 0.72
LXN (GeneID 56925) | SID134319622 | 0.79 | 0.66 | 0.84
LTB4R (GeneID 1241) | SID135621043 | 1.42 | 0.88 | 0.62
MBP (GeneID 4155) | SID135623800 | 1.43 | 0.9 | 0.63
YDJC (GeneID 150223) | SID152149941 | 1.05 | 0.78 | 0.74
KCNE4 (GeneID 23704) | SID152153301 | 1.12 | 0.92 | 0.82
NXN (GeneID 64359) | SID152147176 | 1.07 | 0.98 | 0.92
PRSS27 (GeneID 83886) | SID134311396 | 1.13 | 0.86 | 0.76
FOXP3 (GeneID 50943) | SID135621744 | 0.98 | 0.88 | 0.9

Part of the list above, reformatted.
{"gene": "UBASH3B (GeneID 84959)", "PubChem SID": "SID135621590", "CDH1-null / parental viability ratio": 0.79, "CDH1-null viability vs mock (fraction of mock)": 0.74, "parental viability vs mock (fraction of mock)": 0.94}
{"gene": "OR4C11 (GeneID 219429)", "PubChem SID": "SID135624587", "CDH1-null / parental viability ratio": 0.95, "CDH1-null viability vs mock (fraction of mock)": 0.8, "parental viability vs mock (fraction of mock)": 0.84}
{"gene": "MAMLD1 (GeneID 10046)", "PubChem SID": "SID152146894", "CDH1-null / parental viability ratio": 1.02, "CDH1-null viability vs mock (fraction of mock)": 0.53, "parental viability vs mock (fraction of mock)": 0.52}
{"gene": "MTFP1 (GeneID 51537)", "PubChem SID": "SID135624143", "CDH1-null / parental viability ratio": 0.97, "CDH1-null viability vs mock (fraction of mock)": 0.97, "parental viability vs mock (fraction of mock)": 1}
{"gene": "RAB40AL (GeneID 282808)", "PubChem SID": "SID135625716", "CDH1-null / parental viability ratio": 0.99, "CDH1-null viability vs mock (fraction of mock)": 0.88, "parental viability vs mock (fraction of mock)": 0.89}
{"gene": "KIAA0825 (GeneID 285600)", "PubChem SID": "SID134321996", "CDH1-null / parental viability ratio": 0.97, "CDH1-null viability vs mock (fraction of mock)": 0.99, "parental viability vs mock (fraction of mock)": 1.02}
